Laboratory results as given in patent US10669306B2 (UNIVERSITY OF WASHINGTON, priority 2016, dated 2020).

How the values were obtained:
[1] = general procedure: Fmoc solid-phase peptide synthesis; Rink amide resin; details: whole synthesis, scale 0.05 mmol
[2] = general procedure: Fmoc solid-phase peptide synthesis; Rink-amide resin (0.30-60 mmol/g substitution), CHEM-IMPEX, with MEGA linker; details: whole synthesis, overall isolated

Row | Substance | isolated mass [1] [mg] | isolated yield [1] [%] | isolated yield [2] [%]
1 | CFPDGRCTKSIPPG-MEGA | 15.4 | 20 | –
2 | CASHEW-MEGA | – | – | 56
